{
  "sequences": {"note": "Sequences of proteins named here, by UniProt entry; tags and fusion partners are left off. A change or cut given only in a name is not applied to a line headed by its entry.", "UniProt Q15843, whole entry, looked up": "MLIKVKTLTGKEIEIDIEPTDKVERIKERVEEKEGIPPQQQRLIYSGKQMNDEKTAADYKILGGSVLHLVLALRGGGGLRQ", "UniProt Q9P032": "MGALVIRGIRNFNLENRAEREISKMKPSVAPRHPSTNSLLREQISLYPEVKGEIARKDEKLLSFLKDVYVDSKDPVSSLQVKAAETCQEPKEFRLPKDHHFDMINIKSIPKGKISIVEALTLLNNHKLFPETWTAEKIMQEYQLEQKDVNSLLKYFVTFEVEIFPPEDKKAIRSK", "UniProt Q9BYG3": "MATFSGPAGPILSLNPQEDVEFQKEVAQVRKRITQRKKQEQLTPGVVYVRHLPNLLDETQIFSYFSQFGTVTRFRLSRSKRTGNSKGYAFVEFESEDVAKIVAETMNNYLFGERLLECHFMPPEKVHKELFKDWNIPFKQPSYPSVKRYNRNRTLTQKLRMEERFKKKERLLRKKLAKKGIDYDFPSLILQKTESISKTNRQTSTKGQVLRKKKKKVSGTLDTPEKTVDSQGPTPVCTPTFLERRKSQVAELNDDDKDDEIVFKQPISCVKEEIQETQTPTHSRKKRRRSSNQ", "UniProt Q8NHV4, whole entry, looked up": "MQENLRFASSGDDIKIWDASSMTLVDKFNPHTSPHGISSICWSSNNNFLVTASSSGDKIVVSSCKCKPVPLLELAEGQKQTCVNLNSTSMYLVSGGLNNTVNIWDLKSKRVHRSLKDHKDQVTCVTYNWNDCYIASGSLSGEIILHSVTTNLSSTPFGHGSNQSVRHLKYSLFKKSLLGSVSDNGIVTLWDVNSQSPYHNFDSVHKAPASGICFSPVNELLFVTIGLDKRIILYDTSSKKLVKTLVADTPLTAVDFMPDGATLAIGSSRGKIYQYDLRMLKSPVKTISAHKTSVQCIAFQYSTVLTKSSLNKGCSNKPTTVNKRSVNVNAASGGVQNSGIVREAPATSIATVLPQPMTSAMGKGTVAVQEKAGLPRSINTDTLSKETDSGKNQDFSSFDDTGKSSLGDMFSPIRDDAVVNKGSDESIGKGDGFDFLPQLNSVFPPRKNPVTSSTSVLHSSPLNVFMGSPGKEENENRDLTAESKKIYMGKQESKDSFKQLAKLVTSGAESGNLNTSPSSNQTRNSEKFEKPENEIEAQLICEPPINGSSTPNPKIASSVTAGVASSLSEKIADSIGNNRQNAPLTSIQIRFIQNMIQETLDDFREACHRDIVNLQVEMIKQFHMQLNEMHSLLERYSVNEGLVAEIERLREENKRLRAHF", "UniProt Q9Y221": "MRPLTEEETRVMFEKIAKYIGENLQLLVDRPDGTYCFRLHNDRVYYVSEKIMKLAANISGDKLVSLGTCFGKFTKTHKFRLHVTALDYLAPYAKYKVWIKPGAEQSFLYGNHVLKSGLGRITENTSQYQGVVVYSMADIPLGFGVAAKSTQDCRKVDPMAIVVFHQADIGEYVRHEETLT", "UniProt Q86X76": "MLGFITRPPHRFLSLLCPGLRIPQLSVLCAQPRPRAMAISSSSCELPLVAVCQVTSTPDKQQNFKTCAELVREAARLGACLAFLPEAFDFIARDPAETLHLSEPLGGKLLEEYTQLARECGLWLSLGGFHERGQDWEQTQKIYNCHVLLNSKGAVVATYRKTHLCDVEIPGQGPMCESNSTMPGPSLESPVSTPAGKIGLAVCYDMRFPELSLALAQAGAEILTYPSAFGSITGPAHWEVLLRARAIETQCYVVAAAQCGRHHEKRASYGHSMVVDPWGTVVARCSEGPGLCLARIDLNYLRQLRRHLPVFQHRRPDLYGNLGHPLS", "UniProt P08651, whole entry, looked up": "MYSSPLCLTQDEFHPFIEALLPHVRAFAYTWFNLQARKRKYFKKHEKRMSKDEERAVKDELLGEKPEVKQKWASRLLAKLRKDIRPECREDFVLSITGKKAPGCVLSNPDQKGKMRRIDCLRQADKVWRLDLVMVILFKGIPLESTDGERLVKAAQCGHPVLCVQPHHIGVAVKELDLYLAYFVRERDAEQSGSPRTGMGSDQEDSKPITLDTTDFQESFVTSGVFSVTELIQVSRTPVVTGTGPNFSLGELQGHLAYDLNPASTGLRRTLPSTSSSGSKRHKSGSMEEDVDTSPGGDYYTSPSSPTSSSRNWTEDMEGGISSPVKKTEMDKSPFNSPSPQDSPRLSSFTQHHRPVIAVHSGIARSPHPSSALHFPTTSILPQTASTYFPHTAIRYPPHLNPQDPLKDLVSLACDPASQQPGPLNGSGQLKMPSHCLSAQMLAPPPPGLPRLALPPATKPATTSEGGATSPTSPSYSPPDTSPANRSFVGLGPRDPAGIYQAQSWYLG", "UniProt P46934": "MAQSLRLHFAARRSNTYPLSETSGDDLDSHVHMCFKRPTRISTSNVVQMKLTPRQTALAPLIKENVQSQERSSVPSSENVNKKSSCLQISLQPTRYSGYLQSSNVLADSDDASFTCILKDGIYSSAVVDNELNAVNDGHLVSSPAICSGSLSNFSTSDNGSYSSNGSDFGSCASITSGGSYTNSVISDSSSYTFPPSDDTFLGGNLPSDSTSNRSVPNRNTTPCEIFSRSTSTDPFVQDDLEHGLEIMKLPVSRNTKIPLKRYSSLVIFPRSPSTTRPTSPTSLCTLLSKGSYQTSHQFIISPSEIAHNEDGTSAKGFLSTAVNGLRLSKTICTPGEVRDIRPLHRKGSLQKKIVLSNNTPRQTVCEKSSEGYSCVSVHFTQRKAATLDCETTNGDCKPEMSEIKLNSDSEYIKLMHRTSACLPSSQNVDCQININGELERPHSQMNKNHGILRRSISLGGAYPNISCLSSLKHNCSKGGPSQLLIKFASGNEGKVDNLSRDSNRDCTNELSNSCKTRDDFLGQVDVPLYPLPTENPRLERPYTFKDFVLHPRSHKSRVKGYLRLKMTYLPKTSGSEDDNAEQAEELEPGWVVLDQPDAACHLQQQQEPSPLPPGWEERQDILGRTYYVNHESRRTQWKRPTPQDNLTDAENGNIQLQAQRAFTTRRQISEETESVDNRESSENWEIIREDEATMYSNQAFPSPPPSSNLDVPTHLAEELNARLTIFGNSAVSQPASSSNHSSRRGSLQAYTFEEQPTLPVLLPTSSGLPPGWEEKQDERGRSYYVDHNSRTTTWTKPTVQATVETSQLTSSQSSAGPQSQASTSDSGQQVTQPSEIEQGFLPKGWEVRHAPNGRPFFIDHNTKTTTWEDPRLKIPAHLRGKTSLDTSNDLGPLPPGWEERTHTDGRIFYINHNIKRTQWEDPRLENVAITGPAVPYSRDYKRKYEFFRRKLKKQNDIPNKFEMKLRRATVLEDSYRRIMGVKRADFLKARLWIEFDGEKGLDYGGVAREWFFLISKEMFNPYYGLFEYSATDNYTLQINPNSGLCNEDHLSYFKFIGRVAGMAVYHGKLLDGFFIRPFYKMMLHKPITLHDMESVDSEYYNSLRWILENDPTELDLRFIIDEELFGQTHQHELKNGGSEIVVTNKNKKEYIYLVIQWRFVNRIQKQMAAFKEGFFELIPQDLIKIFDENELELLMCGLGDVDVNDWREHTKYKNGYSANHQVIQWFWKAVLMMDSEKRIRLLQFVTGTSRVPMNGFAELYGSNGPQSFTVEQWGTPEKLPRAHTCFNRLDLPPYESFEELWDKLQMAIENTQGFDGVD", "UniProt Q9UGV2": "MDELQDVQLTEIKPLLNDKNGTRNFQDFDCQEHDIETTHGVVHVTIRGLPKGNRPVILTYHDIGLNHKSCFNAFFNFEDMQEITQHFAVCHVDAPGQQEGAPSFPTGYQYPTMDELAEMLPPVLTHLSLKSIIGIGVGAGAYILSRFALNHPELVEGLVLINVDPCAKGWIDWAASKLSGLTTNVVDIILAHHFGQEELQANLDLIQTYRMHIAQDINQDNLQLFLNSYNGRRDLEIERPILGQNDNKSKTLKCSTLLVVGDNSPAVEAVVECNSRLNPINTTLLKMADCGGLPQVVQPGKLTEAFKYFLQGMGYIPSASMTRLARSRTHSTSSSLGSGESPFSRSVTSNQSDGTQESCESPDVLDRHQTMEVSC", "UniProt Q9Y697": "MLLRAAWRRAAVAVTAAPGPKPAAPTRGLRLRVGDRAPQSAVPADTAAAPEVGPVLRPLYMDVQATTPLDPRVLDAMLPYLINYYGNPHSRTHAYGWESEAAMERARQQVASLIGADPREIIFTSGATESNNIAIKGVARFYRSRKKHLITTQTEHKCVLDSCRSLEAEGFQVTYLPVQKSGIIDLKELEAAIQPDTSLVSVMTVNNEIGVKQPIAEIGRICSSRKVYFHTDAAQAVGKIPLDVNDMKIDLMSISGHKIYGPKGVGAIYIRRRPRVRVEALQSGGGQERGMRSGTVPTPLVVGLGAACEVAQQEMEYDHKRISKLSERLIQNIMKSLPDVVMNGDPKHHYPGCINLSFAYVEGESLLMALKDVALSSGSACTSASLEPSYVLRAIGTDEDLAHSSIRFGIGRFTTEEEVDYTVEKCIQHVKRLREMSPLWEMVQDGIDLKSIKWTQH", "UniProt Q12968": "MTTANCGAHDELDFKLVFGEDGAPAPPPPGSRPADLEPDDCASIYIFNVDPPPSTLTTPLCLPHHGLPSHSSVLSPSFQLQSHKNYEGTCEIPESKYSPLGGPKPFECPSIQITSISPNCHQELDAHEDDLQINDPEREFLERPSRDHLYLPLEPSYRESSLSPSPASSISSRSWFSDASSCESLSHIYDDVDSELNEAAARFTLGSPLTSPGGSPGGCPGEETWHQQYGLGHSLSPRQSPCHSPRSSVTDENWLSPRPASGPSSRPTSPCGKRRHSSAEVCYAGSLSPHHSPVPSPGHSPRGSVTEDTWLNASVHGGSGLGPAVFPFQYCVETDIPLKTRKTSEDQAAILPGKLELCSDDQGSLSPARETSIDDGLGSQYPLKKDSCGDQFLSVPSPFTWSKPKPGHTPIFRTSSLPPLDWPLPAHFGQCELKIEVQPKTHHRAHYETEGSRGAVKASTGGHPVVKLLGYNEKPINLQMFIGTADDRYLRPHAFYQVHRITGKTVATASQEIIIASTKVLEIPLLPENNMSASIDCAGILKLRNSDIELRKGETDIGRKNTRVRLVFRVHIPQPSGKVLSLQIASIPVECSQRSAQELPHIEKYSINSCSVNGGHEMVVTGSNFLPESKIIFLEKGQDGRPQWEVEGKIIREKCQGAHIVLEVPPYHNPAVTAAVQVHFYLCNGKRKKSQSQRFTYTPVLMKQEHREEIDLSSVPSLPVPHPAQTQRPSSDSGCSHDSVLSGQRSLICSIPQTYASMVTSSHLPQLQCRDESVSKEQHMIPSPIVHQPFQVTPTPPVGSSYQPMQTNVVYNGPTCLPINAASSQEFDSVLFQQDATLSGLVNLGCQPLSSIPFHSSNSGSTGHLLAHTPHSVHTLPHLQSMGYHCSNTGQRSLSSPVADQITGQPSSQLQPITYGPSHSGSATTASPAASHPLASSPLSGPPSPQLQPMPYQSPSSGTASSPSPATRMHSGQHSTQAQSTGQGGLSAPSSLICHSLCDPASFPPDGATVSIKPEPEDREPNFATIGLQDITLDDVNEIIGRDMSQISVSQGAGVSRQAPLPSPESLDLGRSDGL", "UniProt P56556, whole entry, looked up": "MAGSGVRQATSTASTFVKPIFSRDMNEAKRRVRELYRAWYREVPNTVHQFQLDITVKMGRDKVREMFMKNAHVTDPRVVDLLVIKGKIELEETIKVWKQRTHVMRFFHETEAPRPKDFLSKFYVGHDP", "UniProt P35240": "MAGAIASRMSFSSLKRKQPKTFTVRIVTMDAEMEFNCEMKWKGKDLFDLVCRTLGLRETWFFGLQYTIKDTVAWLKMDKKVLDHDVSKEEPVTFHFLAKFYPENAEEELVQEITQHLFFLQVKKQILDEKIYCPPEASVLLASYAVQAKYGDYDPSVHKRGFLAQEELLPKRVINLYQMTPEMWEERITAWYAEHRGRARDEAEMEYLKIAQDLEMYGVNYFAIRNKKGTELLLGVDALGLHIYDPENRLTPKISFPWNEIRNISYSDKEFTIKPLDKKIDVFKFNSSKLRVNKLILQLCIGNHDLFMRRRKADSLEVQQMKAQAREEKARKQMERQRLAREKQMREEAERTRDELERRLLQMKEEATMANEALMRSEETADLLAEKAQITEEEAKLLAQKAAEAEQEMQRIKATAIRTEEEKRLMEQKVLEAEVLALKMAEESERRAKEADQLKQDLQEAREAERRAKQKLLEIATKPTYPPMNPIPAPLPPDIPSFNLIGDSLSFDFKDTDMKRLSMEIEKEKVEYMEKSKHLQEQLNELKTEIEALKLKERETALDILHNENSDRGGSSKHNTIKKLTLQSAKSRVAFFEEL", "UniProt O75251, whole entry, looked up": "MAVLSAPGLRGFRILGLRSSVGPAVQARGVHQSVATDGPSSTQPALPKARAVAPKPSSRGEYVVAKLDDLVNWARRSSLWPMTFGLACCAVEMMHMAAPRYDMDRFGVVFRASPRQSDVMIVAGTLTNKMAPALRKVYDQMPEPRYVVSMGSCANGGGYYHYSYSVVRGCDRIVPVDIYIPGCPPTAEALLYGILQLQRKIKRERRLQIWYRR", "UniProt O95169, whole entry, looked up": "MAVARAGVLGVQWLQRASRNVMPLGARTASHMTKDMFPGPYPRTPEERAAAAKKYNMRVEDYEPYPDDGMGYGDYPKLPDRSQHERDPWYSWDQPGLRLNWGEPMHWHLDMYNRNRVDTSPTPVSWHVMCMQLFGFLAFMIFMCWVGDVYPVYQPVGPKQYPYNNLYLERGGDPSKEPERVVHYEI"},
  "source": "the supplement of paper PMC10849652",
  "note": "Some of the results follow.",
  "data": [
    {"compound": "Cn1cncc1[C@@](N)(c1ccc(Cl)cc1)c1ccc2c(c1)c(-c1cccc(Cl)c1)cc(=O)n2C [tipifarnib]", "assay": "log2 fold change, soluble protein after heating vs DMSO (PISA); higher = thermal stabilisation; K562 lysate, 10 uM; active = over 0.2 and 3.5 SD of the protein, either way, in both replicates (recomputed)", "how_it_was_run": "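To prepare the extract, K562 pellets were dounce-homogenised in PBS pH 7.4 with 1 mM MgCl2, giving crude material at 1 mg/mL protein. This was treated with 10 μM compound for 30 min, then heated in aliquots for 3 min over 48°C-58°C before pooling and addition of NP-40 to 0.5% at 4°C. Centrifugation at 21,000xg for 90 min left soluble protein in the supernatant, which TMTpro 16plex LC-MS/MS quantified with equalised channel sums. Results are log-two fold changes in thermal stability compared with solvent controls, from duplicates.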", "values": [
      {"target": "NIPSNAP3A (UniProt Q9UFN0)", "log2 fold change": "inactive: 0.015"},
      {"target": "NEDD8 (UniProt Q15843)", "log2 fold change": "inactive: 0.066"},
      {"target": "NDUFAF4 (UniProt Q9P032)", "log2 fold change": "inactive: -0.003"},
      {"target": "NDUFV1 (UniProt P49821)", "log2 fold change": "inactive: 0.024"},
      {"target": "NEU1 (UniProt Q99519)", "log2 fold change": "inactive: -0.071"},
      {"target": "NDRG2 (UniProt Q9UN36)", "log2 fold change": "inactive: 0.003"},
      {"target": "NDUFAB1 (UniProt O14561)", "log2 fold change": "inactive: 0.027"},
      {"target": "NIFK (UniProt Q9BYG3)", "log2 fold change": "inactive: 0.002"},
      {"target": "NFU1 (UniProt Q9UMS0)", "log2 fold change": "inactive: 0.067"},
      {"target": "NDC80 (UniProt O14777)", "log2 fold change": "inactive: 0"},
      {"target": "NEDD1 isoform 3 (UniProt Q8NHV4)", "log2 fold change": "inactive: -0.011"},
      {"target": "NIP7 (UniProt Q9Y221)", "log2 fold change": "inactive: -0.013"},
      {"target": "NIT1 (UniProt Q86X76)", "log2 fold change": "inactive: 0.035"},
      {"target": "NDUFA10 (UniProt O95299)", "log2 fold change": "inactive: 0"},
      {"target": "NFIC (UniProt P08651)", "log2 fold change": "inactive: 0.014"},
      {"target": "NLRP2 (UniProt Q9NX02)", "log2 fold change": "inactive: -0.008"},
      {"target": "NEDD4 isoform 4 (UniProt P46934)", "log2 fold change": "inactive: -0.001"},
      {"target": "NDRG3 (UniProt Q9UGV2)", "log2 fold change": "inactive: -0.026"},
      {"target": "NFKBIE (UniProt O00221)", "log2 fold change": "inactive: -0.112"},
      {"target": "NEPRO (UniProt Q6NW34)", "log2 fold change": "inactive: 0.011"},
      {"target": "NDUFA11 (UniProt Q86Y39)", "log2 fold change": "inactive: -0.011"},
      {"target": "NGLY1 (UniProt Q96IV0)", "log2 fold change": "inactive: -0.016"},
      {"target": "NFS1 (UniProt Q9Y697)", "log2 fold change": "inactive: 0.018"},
      {"target": "NDUFA7 (UniProt O95182)", "log2 fold change": "inactive: 0.009"},
      {"target": "NFATC4 isoform 2 (UniProt Q14934)", "log2 fold change": "inactive: -0.066"},
      {"target": "NHP2 (UniProt Q9NX24)", "log2 fold change": "inactive: -0.026"},
      {"target": "NFATC3 (UniProt Q12968)", "log2 fold change": "inactive: -0.007"},
      {"target": "NFAT5 isoform 5 (UniProt O94916)", "log2 fold change": "inactive: -0.032"},
      {"target": "NGRN (UniProt Q9NPE2)", "log2 fold change": "inactive: 0.013"},
      {"target": "NDUFA6 (UniProt P56556)", "log2 fold change": "inactive: -0.043"},
      {"target": "NF2 (UniProt P35240)", "log2 fold change": "inactive: -0.038"},
      {"target": "NELFB isoform 2 (UniProt Q8WX92)", "log2 fold change": "inactive: -0.014"},
      {"target": "NDUFS7 (UniProt O75251)", "log2 fold change": "inactive: -0.025"},
      {"target": "NFX1 (UniProt Q12986)", "log2 fold change": "inactive: -0.037"},
      {"target": "NDUFB9 (UniProt Q9Y6M9)", "log2 fold change": "inactive: 0.031"},
      {"target": "NDUFB8 (UniProt O95169)", "log2 fold change": "inactive: -0.02"},
      {"target": "NF1 (UniProt P21359)", "log2 fold change": "inactive: 0.018"},
      {"target": "NIPSNAP2 (UniProt O75323)", "log2 fold change": "inactive: -0.009"},
      {"target": "NEK7 (UniProt Q8TDX7)", "log2 fold change": "inactive: -0.006"},
      {"target": "NKIRAS2 (UniProt Q9NYR9)", "log2 fold change": "inactive: 0.044"}
    ]}
  ]
}
